Measured values published in paper PMC2942879.
Results are given in words; binding and its absence hold for the method and conditions named. Some results given as binding are weak or reduced against the parent protein; the word gives no strength.

The chains behind the UniProt entries cited, without tags or fusion partners.
UniProt P61169: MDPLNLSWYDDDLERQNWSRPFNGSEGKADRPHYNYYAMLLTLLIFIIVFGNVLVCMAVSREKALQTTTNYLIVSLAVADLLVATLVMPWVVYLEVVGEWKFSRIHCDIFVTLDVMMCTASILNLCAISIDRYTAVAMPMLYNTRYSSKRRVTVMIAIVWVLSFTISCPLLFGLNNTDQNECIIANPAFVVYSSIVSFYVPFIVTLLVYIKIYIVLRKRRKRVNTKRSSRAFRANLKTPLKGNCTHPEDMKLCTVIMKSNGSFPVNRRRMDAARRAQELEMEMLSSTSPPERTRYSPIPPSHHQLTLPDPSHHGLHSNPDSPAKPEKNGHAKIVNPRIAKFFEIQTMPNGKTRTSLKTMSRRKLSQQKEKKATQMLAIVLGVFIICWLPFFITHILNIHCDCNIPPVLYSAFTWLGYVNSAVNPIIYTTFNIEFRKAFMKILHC

Biological target: dopamine D2 receptor (rat striatum) (rat (endogenous in striatum)) (UniProt P61169)
Assay: SDS-PAGE and Western blot of dimer and monomer bands; rat striatum, rat striatal slices, cultured rat striatal neurons or transfected HEK293T cells homogenized in RIPA buffer, 50 μg boiled 5 min in SDS sample buffer, blotted with polyclonal anti-D2; with or without amphetamine, haloperidol, quinpirole, dopamine, TAT peptides

dopamine D2 receptor (rat striatum) (from UniProt P61169 1-444)
binding: binds
